This is one part of the list.
Test system: T1, CTL2-GFP (C. trachomatis L2/434/Bu, GFP-expressing)
T1 construct: L2/434/Bu, GFP-expressing
Set-up: species or system HeLa; Intracellular C. trachomatis growth in HeLa cells, bulk GFP fluorescence relative to DMSO
Conditions: bulk GFP, single well; 28.5 h, 10 µM; inhibitor

| SMILES | % of control remaining [%] |
| --- | --- |
| CCN(CC)CCOC(=O)C1(c2ccccc2)CCOc2ccccc21 (stereo not drawn) [CBK009850C] | 101.063 |
| CC(=O)OCC(=O)Nc1ccc2cc(Br)cnc2n1 [CBK063311] | 95.7529 |
| CCn1cnc2cc(NC(=O)CC(C)n3nc(C)cc3C)ccc21 (stereo not drawn) [CBK281401] | 132.641 |
| CC(=O)Nc1cccc(CN(CCCO)C2CCc3ccccc32)c1 (stereo not drawn) [CBK304011] | 86.8702 |
| Cn1ncc(N2CCC(CNC(=O)COc3ccc(Cl)cc3)C2)cc1=O (stereo not drawn) [CBK306517] | 119.868 |
| CC1CN(c2cc(CNc3nc4ccccn4c3C#N)ccn2)CCO1 (stereo not drawn) [CBK306423] | 98.8997 |
| CN(C)Cc1cc(C[C@@H]2C[C@H](NS(=O)(=O)c3ccccc3)C2(C)C)no1 [CBK289307] | 117.589 |
| c1ccc([C@@H]2CN(CC3CCOC3)C[C@H]2c2cc[nH]n2)cc1 (stereo partly drawn) [CBK285163] | 79.3613 |
| O=C(Cn1cccnc1=O)NC(c1ccc2c(c1)CCO2)C1CC(O)C1 (stereo not drawn) [CBK306595] | 144.431 |
| CCn1cc(C2CN(S(=O)(=O)c3cc(C)c(OC)cc3C)CCO2)cn1 (stereo not drawn) [CBK304225] | 83.9705 |
| CCCn1c(=O)c(C(=O)NCCN(CC)CC)c(O)c2cc(Br)ccc21 [CBK291118] | 93.2956 |
| N=C1OC2CSCC2N1C(=O)Cc1ccccc1Cl (stereo not drawn) [CBK284516] | 147.666 |
| OC(CN1CCC(O)(c2ccccc2F)CC1)c1ccc(F)cc1 (stereo not drawn) [CBK282492] | 145.916 |
| CC(C)C1OC(NCCN2CCOCC2)=NC1=O (stereo not drawn) [CBK074097T] | 141.185 |
| Cc1ccc2cc(CN(CC(C)C)S(C)(=O)=O)c(O)nc2c1 [CBK269593] | 84.4681 |
| CN1CCC(C(=O)N2CCCc3ccccc32)CC1 [CBK200260] | 105.47 |
| N#Cc1cccc(-c2cnc(N)c(-c3ccc(O)cc3)n2)c1 [CBK115630] | 123.125 |
| O=C(COc1cccc2ccccc12)N/N=C/c1ccco1 [CBK086853] | 101.097 |
| CN(C)CCN(C)C(=O)c1ccc(-c2cccc(OC(F)(F)F)c2)nc1N(C)C [CBK106081] | 172.982 |
| c1csc(CSc2nnc3sc4ccccc4n23)c1 [CBK266291] | 149.633 |
| CC(C)(C)c1cc(C(=O)N2CCN(c3ncccn3)CC2)n(Cc2ccc(Cl)cc2Cl)n1 [CBK107294] | 99.2924 |
| Cc1cccc(OCCOc2ccc(Br)cc2/C=C2\SC(=N)NC2=O)c1 [CBK263958] | 112.375 |
| CCNC(=O)[C@H]1CN(Cc2ccccc2)C[C@@H]1C(=O)c1ccccc1 [CBK285265] | 119.608 |
| Cn1c(SCC(=O)N2CCN(Cc3ccccc3)CC2)nnc1-c1cccc([N+](=O)[O-])c1 [CBK267154] | 153.886 |
| O=C(c1ccc(F)cc1)C1CCN(C(=O)c2cccnc2NCc2ccc3c(c2)OCO3)CC1 [CBK160114] | 84.6524 |
| CCn1c(C)cc2cc(NS(=O)(=O)c3cn(C)nc3C)ccc21 [CBK282789] | 119.711 |

| SMILES | % of control remaining [%] |
| --- | --- |
| COc1cc(C#N)ccc1Oc1ccc([N+](=O)[O-])cn1 [CBK002569] | 102.279 |
| CN(Cc1nccs1)C(=O)NC1CCN(Cc2cccc(O)c2)CC1 [CBK307657] | 127.817 |
| O=C(Nc1ccc(Cl)cc1C(=O)O)c1ccccc1Cl [CBK000171] | 107.981 |
| CCc1nc(CC(=O)NC(C)C(O)c2ccc(F)cc2)cs1 (stereo not drawn) [CBK304003] | 92.4574 |
| CCN1C(=O)C(F)(CC)C(=O)c2ccccc21 (stereo not drawn) [CBK098854] | 161.316 |
| CCCNC(=O)Cn1nc(CC)n2c(cc3sccc32)c1=O [CBK284030] | 126.17 |
| NC(=O)CN1CCN(CCc2ccccc2)CC1 [CBK126429] | 117.85 |
| CC1(C)CC(NC(=O)C2CCN(S(C)(=O)=O)CC2)c2ccccc2O1 (stereo not drawn) [CBK304404] | 135.461 |
| CCC(CN1CCN(C)CC1)NC(=O)C1(c2ccc(F)cc2)CC1 (stereo not drawn) [CBK282785] | 138.425 |
| FC(F)(F)c1cccc(Sc2cccc3ccccc23)n1 [CBK091449] | 91.0397 |
| Cc1nn(CC(=O)N(C)Cc2cnccn2)c(=O)c2ccccc12 [CBK304356] | 149.208 |
| Nc1ncc(-c2cccc(F)c2)nc1-c1ccc(C(=O)N2CCOCC2)cc1 [CBK064131] | 156.846 |
| O=[N+]([O-])c1ccc(C(O)CNC(=S)Nc2ccccc2)cc1 (stereo not drawn) [CBK261086] | 81.9815 |
| O=C(NCc1ccccn1)c1ccc(-n2ccnc2)c(-n2cccc2)c1 [CBK285347] | 137.684 |
| O=C(CC1CS(=O)(=O)CC1CC(=O)Nc1cccc(Cl)c1Cl)Nc1cccc(Cl)c1Cl (stereo not drawn) [CBK262404] | 129.609 |
| O=C(NCc1n[nH]c(=O)c2ccccc12)Nc1ccc(F)cc1 [CBK287744] | 99.8443 |
| COc1ccc(-n2cc(-c3ccc(C(F)(F)F)cc3)nn2)cc1OC [CBK112952] | 129.807 |
| c1ccc2cc(-c3cn4ccnc4c(Nc4ccc(N5CCOCC5)cc4)n3)ccc2c1 [CBK066359] | 92.8116 |
| CCc1n[nH]c(C2CN(Cc3nc4c(F)cccc4[nH]3)CCO2)n1 (stereo not drawn) [CBK304117] | 146.649 |
| CCOC(=O)c1cnc(SC)nc1NCCc1c[nH]cn1 [CBK086623] | 127.373 |
| O=C(CSc1ccccn1)Nc1ccc2ccccc2c1 [CBK263860] | 113.138 |
| COc1ccccc1Cc1cccc(C2CCN(CC(=O)Nc3nccs3)CC2)n1 [CBK286227] | 107.329 |
| O=C(C1CCCC1)N1CCCC(c2nccnc2-c2cccc(C(F)(F)F)c2)C1 (stereo not drawn) [CBK286221] | 84.3725 |
| COc1ccc(-c2ccc(CCC(=O)O)n2CCc2ccccc2)cc1 [CBK265929] | 78.1184 |
| CC(Cc1cccs1)C(=O)N1CCn2cnnc2C1 (stereo not drawn) [CBK282109] | 135.923 |

As entered above.
`O=[N+]([O-])c1ccc(C(O)CNC(=S)Nc2ccccc2)cc1` (stereo not drawn) [CBK261086] – % of control remaining [%]: 81.9815
`O=C(NCc1ccccn1)c1ccc(-n2ccnc2)c(-n2cccc2)c1` [CBK285347] – % of control remaining [%]: 137.684

Source: paper PMC12040169 (PLOS Biology, 2025)
